Our source for the binding values is article PMC11253882.

By UniProt entry, the sequences of proteins in these tests, tags left out.
UniProt D4A523: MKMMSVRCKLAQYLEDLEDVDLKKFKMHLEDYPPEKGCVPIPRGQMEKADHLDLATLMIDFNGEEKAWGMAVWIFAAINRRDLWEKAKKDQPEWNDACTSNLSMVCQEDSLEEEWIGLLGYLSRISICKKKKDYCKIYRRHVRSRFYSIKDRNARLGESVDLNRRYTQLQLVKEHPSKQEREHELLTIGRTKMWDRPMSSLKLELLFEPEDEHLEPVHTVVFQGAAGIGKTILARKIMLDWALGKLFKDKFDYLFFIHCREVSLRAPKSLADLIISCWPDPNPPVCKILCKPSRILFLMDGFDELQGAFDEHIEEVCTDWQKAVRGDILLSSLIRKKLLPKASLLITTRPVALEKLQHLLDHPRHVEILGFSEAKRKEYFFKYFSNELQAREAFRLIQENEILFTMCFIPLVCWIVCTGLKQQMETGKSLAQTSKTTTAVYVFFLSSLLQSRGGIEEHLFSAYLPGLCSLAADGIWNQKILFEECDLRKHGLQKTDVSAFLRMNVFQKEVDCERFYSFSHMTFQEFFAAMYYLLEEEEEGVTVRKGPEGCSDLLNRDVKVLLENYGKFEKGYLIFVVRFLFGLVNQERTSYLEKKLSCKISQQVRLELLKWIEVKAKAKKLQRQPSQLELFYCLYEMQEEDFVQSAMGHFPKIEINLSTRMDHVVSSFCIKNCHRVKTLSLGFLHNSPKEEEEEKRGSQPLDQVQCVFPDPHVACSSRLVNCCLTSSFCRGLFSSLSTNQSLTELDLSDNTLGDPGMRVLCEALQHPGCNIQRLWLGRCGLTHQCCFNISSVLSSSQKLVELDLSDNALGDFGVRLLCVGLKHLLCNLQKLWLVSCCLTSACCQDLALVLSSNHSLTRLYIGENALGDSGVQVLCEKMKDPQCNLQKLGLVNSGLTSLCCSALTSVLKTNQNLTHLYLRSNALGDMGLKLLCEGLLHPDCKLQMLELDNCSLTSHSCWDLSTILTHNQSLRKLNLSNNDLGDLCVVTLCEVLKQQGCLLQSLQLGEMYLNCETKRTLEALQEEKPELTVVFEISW

For this experiment, the target named is T1, Farnesoid X receptor (FXR) (rat (endogenous in IEC-6)) (UniProt Q62735).
T1 sequence: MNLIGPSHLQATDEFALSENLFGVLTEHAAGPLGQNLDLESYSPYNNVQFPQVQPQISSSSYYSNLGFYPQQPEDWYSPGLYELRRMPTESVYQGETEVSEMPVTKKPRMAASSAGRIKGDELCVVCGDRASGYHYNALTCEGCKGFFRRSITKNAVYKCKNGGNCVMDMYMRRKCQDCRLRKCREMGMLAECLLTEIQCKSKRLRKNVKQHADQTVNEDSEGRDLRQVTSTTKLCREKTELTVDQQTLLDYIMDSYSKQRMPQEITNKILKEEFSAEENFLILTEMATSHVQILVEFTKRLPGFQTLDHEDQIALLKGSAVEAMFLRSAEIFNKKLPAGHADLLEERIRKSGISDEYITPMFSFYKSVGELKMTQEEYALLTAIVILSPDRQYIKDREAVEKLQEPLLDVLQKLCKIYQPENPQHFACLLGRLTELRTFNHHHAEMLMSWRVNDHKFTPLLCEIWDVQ
Briefly: co-IP; 100 ug of IEC-6 lysate incubated overnight at 4°C with mouse anti-FXR monoclonal, rabbit anti-NLRP3 polyclonal or control IgG; Protein A/G PLUS-Agarose 5 h at 4°C; four washes with PBS; western blot. A general note: In western blotting, separated proteins are transferred to a membrane and probed.

These are yes or no findings as the source states them, for the method shown. Binding seen in cells or lysates may run through a third protein. Some entries that bind do so weakly or less than the wild type.

Consider NLRP3 (from UniProt D4A523 1-1035), for which the binding result was “binds”.
